At least one structure is not confirmed: it was looked up by name or label, or the drawing left a doubt.
Assay: UV-vis and fluorescence measurements
Format: physicochemical
Settings: in CH2Cl2; for fluorescence quantum yield: fluorescein in 0.1 M NaOH as standard

Row | Structure (SMILES) | fluorescence quantum yield [%] | absorption band [nm] | emission band [nm]
1 | CC1=CC(C)=[N+]2C1=C(c1ccc([N+](C)(C)C)cc1)c1c(C)cc(C)n1[B-]2(O)c1ccccc1 (stereo not shown) [[2-OH]^+] | 12.1 |  | 
2 | CC1=CC(C)=[N+]2C1=C(c1ccc([N+](C)(C)C)cc1)c1c(C)cc(C)n1[B-]2(F)c1ccccc1 (stereo not shown) [[2-F]^+] | 14.3 | 506 | 528
